{"sequences": {"note": "The chains behind the UniProt entries cited, without tags or fusion partners. Where a name states a change or a piece, a line headed by the entry shows the natural chain unless it says otherwise.", "UniProt Q13315": "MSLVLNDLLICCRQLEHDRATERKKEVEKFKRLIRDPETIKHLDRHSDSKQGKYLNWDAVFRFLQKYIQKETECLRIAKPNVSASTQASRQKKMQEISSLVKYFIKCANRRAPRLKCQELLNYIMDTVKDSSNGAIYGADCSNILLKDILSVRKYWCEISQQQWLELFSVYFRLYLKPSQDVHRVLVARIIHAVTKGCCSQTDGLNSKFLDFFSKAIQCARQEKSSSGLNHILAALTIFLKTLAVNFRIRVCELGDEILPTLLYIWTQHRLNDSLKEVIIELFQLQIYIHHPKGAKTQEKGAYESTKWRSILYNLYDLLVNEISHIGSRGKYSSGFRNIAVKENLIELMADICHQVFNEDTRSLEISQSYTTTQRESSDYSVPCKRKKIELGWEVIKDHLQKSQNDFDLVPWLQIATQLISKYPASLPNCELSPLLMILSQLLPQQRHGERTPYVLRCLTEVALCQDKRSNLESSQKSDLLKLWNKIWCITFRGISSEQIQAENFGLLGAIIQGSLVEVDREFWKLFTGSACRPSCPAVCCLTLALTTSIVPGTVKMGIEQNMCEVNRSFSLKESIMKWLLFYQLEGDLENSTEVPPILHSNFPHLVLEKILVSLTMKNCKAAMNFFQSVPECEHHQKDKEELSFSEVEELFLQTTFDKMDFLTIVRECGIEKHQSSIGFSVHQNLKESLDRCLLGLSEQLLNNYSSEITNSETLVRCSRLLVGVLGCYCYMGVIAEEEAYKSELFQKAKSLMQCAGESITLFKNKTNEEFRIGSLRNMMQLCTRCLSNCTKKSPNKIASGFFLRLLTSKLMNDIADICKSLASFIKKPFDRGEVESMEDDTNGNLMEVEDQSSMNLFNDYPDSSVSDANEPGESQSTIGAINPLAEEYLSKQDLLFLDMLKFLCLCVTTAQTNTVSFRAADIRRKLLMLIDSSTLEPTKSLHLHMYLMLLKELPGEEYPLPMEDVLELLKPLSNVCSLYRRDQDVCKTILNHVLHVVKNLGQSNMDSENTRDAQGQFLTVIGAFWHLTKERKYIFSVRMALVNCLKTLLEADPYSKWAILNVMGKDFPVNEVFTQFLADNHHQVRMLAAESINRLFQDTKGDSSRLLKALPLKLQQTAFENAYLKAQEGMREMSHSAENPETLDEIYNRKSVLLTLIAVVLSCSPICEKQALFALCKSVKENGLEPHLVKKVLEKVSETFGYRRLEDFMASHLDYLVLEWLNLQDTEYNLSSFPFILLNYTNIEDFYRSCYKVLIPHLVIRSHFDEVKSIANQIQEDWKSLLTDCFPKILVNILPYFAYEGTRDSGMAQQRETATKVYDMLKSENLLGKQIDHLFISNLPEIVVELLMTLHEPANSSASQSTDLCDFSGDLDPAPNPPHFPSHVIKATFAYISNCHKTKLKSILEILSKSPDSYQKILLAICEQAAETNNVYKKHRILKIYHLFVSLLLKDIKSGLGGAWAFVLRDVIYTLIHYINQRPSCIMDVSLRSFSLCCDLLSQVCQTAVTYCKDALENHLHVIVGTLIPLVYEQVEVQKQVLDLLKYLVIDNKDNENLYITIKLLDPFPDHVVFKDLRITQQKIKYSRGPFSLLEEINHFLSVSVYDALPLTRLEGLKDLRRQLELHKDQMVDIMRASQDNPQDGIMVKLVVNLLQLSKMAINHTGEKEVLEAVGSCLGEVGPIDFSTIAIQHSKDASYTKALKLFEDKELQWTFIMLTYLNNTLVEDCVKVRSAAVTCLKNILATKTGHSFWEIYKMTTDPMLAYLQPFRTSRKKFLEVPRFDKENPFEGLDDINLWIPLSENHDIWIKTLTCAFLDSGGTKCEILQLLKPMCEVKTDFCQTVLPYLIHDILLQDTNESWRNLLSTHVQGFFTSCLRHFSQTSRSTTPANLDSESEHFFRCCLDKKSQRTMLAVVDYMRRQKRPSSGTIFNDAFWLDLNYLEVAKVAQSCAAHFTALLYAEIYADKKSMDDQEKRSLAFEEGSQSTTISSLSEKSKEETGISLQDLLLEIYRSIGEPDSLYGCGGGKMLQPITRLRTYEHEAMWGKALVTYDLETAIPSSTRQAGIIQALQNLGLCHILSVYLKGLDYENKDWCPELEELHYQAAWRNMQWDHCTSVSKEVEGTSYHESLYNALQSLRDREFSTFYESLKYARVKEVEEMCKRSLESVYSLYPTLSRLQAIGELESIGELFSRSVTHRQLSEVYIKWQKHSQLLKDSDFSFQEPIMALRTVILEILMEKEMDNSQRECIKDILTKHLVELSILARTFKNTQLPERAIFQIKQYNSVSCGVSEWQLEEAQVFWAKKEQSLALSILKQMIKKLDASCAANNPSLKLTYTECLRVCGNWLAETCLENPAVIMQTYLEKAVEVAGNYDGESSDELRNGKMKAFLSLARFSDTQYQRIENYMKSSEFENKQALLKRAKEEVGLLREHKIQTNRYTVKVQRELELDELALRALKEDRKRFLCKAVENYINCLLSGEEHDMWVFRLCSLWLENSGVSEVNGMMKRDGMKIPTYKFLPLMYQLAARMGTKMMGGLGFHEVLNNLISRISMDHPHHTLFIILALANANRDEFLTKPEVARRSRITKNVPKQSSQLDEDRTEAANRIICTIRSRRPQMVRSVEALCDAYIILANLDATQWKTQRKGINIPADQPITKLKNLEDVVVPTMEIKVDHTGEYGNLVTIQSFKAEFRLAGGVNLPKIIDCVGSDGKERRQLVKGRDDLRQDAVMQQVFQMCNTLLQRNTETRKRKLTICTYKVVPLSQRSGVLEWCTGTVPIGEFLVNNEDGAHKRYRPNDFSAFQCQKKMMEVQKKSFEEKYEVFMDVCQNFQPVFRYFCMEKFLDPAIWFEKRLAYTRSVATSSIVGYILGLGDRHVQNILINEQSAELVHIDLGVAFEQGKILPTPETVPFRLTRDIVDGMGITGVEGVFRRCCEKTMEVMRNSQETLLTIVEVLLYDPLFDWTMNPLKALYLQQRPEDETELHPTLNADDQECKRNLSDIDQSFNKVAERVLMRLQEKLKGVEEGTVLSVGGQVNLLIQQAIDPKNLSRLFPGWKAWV"}, "source": "patent US20040014701A1", "about": "“Inhibiting retrotransposon and retroviral integration by targeting the atm pathway” (priority 2003, published 2004)", "key": {"[1]": {"system": "MESV based retrovirus (R229-Puro)", "test": "MESV based colony formation assay (CFA) of retroviral integration", "format": "cell-based, Murine embryonic stem cell virus (MESV)", "settings": "drug present 6 hours, FIG. 4A"}, "[2]": {"system": "MESV based retrovirus (R229-Luc)", "test": "MESV based luciferase integration assay (LUCIA) in NIH3T3 cells", "format": "cell-based, Murine embryonic stem cell virus (MESV)", "settings": "for inhibition of retroviral integration (transduction efficiency relative to untreated cells): MESV based LUCIA, drug present 6 hours, FIG. 4B"}, "HIV-1 retrovirus": {"system": "HIV-1 retrovirus", "test": "HIV-1 based LUCIA", "format": "cell-based", "settings": "drug present 6 hours, FIG. 9"}, "[3]": {"system": "viral entry, reverse transcription or nuclear accumulation", "test": "PCR and southern blot analysis of DNA from retrovirus infected cells", "format": "cell-based", "settings": "in cells"}, "reverse transcriptase": {"system": "reverse transcriptase", "test": "Reverse transcriptase activity in vitro"}, "HIV-1": {"system": "HIV-1", "settings": "at concentrations similar to that shown here; cited from earlier work"}, "ATM": {"biological_target": "ATM (Homo sapiens, UniProt Q13315)", "test": "ATM kinase assay (GST-p53 substrate)", "format": "biochemical", "set-up": "ATM was immunoprecipitated from HeLa nuclear extract using polyclonal antisera raised to the caspase cleavage site region of ATM; endogenous in cells; host or cells: HeLa nuclear extract (immunoprecipitate)", "settings": "in vitro, 50 μM ATP, FIG. 6A"}}, "note": "“Also recorded” adds a separate entry of the source. At least one compound was matched to its structure with a doubt left.", "data": [{"compound": "O=c1cc(N2CCOCC2)oc2c(-c3ccccc3)cccc12", "note": "[LY294002]", "values": [{"measurement": "inhibition of retroviral integration (transduction efficiency relative to untreated cells)", "setting": "[1]", "value": "inhibit retroviral integration at low micromolar concentrations; also recorded: retroviral integration is abrogated"}, {"measurement": "inhibition of retroviral integration (transduction efficiency relative to untreated cells)", "setting": "[2]", "value": "inhibit retroviral integration at low micromolar concentrations; also recorded: retroviral integration is abrogated"}, {"measurement": "inhibition of retroviral integration (transduction efficiency relative to untreated cells)", "setting": "HIV-1 retrovirus", "value": "inhibit the integration of HIV-1 retrovirus; also recorded: inhibit retroviral integration at low micromolar concentrations"}, {"measurement": "effect on viral entry, reverse transcription or nuclear accumulation", "setting": "[3]", "value": "nor did they prevent viral entry, reverse transcription or nuclear accumulation in cells"}, {"measurement": "inhibition of reverse transcriptase activity", "setting": "reverse transcriptase", "value": "did not inhibit reverse transcriptase activity in vitro"}]}, {"compound": "COC[C@H]1OC(=O)c2coc3c2[C@@]1(C)C1=C(C3=O)[C@@H]2CCC(=O)[C@@]2(C)C[C@H]1OC(C)=O", "note": "[wortmannin]", "values": [{"measurement": "inhibition of retroviral integration (transduction efficiency relative to untreated cells)", "setting": "[1]", "value": "inhibit retroviral integration at low micromolar concentrations; also recorded: retroviral integration is abrogated"}, {"measurement": "efficiency in inhibiting retroviral transduction compared with LY294002", "setting": "[2]; MESV (FIG. 4A, 4B) and HIV-1 (FIG. 9)", "value": "significantly more efficient than LY294002"}, {"measurement": "inhibition of retroviral integration (transduction efficiency relative to untreated cells)", "setting": "[2]", "value": "inhibit retroviral integration at low micromolar concentrations; also recorded: retroviral integration is abrogated"}, {"measurement": "inhibition of retroviral integration (transduction efficiency relative to untreated cells)", "setting": "HIV-1 retrovirus", "value": "inhibit the integration of HIV-1 retrovirus; also recorded: inhibit retroviral integration at low micromolar concentrations"}, {"measurement": "effect on viral entry, reverse transcription or nuclear accumulation", "setting": "[3]", "value": "nor did they prevent viral entry, reverse transcription or nuclear accumulation in cells"}, {"measurement": "inhibition of HIV-1 replication", "setting": "HIV-1", "value": "inhibit HIV-1 replication"}, {"measurement": "inhibition of reverse transcriptase activity", "setting": "reverse transcriptase", "value": "did not inhibit reverse transcriptase activity in vitro"}, {"measurement": "concentration at which ATM kinase activity is abolished", "setting": "ATM", "value": 5, "unit": "µM"}]}]}
